Test results reported in PubChem BioAssay AID1347076 (National Center for Advancing Translational Sciences (NCATS), 2019).
Among all 400,000 compounds or so, about 13,000 (3.2%) were called active. The inconclusive results got no clear call from the source; some entries with a clear call stand among them for comparison. Calls follow the shape of the dose curve; as a rule, active = well fitted cell-killing curve with a large enough effect; inconclusive = small, poorly fitted or top-dose-only effect, or effect the other way; inactive = flat fitted curve, though single readings scatter. Where the call is inconclusive, the potency comes from a doubtful curve fit.

assay: qHTS assay for MDR1-selective chemotherapeutics: Primary screen using the drug-selected MDR subline cells KB-V1; settings: KB-V1 MDR cells viability, CellTiter-Glo, 72 h; activity change, negative = cytotoxicity: at 46.1 µM (top of the series); also: nearly all actives have a fitted effect of over 60% in size
Procedure, shortened: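 Drug-selected KB-V1 cells, grown in DMEM lacking phenol red with 10% FBS, receive compound titrations; after three days at 37 degrees C, surviving cell ATP is quantified by CellTiter-Glo luminescence and responses normalized and curve-fitted.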
% is scaled to controls: 0 for no effect and ±100 for the full control effect; potency is read from the fitted curve at half-maximal effect.

SMILES	Potency	activity change, negative = cytotoxicity
CCc1nn(CC(=O)N(CC)Cc2ccccc2)c(=O)c2cc3occc3n12	inactive	
CCn1c(SCc2nc3ccccc3[nH]2)nnc1-c1ccccc1OC	inactive	
Cc1cc(C)cc(N(C(=O)c2ccco2)C(C(=O)NC2CCCC2)c2ccncc2)c1 (configuration not stated)	inconclusive: 32.6 µM [cytotoxic, single point]	
Cc1noc(C)c1COC(=O)c1ccc(N(C)C)cc1	active: 4.11 µM	
O=C(CCNc1n[nH]c(=O)[nH]c1=O)N/N=C/c1ccccc1Br	inconclusive: 8.2 µM [rising, partial curve, poor fit]	
CC(C)(C)Cc1c(-c2ccc(Br)cc2)nc2ccc(Br)cn12	inactive	
CCc1ccc(S(=O)(=O)Nc2ccc(Br)cn2)cc1	inconclusive: 29.1 µM [rising, single point]	
C#CCOC(=O)C[N+](C)(C)CC#Cc1ccccc1	inconclusive: 23.1 µM [rising, single point]	
O=C(O)C(Cc1c[nH]c2ccccc12)NS(=O)(=O)c1cccc2nsnc12 (configuration not stated)	inactive	
O=S(=O)(NCc1ccccn1)C(F)(F)F	inactive	
N#Cc1nc(Cc2cccc3ccccc23)oc1NCc1ccc(F)cc1	inconclusive: 20.6 µM [cytotoxic, single point]	
O=C(CNC(=S)N(Cc1ccccc1)Cc1ccccc1F)NCCc1ccccc1	inconclusive: 2.91 µM [cytotoxic, full curve]	
Cc1ccccc1C(=O)NNC(=S)NC(=O)c1cccnc1	inactive	
CCCc1cc(=O)n2[nH]c(-c3ccc(C)cc3)cc2n1	inconclusive: 23.1 µM [cytotoxic, single point]	
COc1ccc(-n2c(C)c(C)c3c(NCCCO)ncnc32)cc1	inactive	
O=C(Nc1cc(Cl)cc(Cl)c1)N1CCCN(Cc2ccccc2)CC1	inconclusive: 18.4 µM [cytotoxic, single point]	
COc1cccc(NC(=O)CCSc2ccc3ccccc3n2)c1	inactive	
O=C1COc2ccc(S(=O)(=O)N3CCCCCC3)cc2N1		inconclusive: -7.21%
COc1ccc(N(C)S(=O)(=O)c2cccc(C(=O)NC3CCCC(C)C3C)c2)cc1 (configuration not stated)	inconclusive: 23.1 µM [cytotoxic, single point]	
COc1ccc(/C=C/c2cc[n+](C)c3ccccc23)cc1OC	inconclusive: 32.6 µM [cytotoxic, single point]	
Cc1cccc2sc(NC(=O)CSc3cn[nH]n3)nc12	inconclusive: 29.1 µM [rising, single point]	
CCN(CC)C(=O)c1oc2ccc(S(=O)(=O)N3CC(C)CC(C)C3)cc2c1C (configuration not stated)	inconclusive: 1.84 µM [cytotoxic, full curve, poor fit]	
Cc1ccc(C)c(NS(=O)(=O)c2ccc3[nH]c(=O)oc3c2)c1	inconclusive: 20.6 µM [cytotoxic, single point]	
COc1ccc(CCn2c(=N)c(C(=O)NCc3ccco3)cc3c(=O)n4ccccc4nc32)cc1OC	inactive	

Entries of single compounds, looked up by structure.
`Cc1cc(C)cc(N(C(=O)c2ccco2)C(C(=O)NC2CCCC2)c2ccncc2)c1` (configuration not stated) in the list: Potency: inconclusive: 32.6 µM [cytotoxic, single point]
`Cc1cccc2sc(NC(=O)CSc3cn[nH]n3)nc12` in the list: Potency: inconclusive: 29.1 µM [rising, single point]
`O=C(O)C(Cc1c[nH]c2ccccc12)NS(=O)(=O)c1cccc2nsnc12` (configuration not stated) in the list: Potency: inactive

Next compounds

SMILES	Potency	activity change, negative = cytotoxicity
CCOc1ccc(CCNC(=O)c2ccc3c(c2)N(Cc2ccccc2)C(=O)c2ccccc2S3=O)cc1OCC (configuration not stated)	inactive	
Cc1ccc(OC(=O)c2ccc([N+](=O)[O-])cc2Cl)cn1	inactive	
C/C=C/c1ccc(OCC(=O)NCc2ccccc2OC)c(OC)c1	inconclusive: 23.1 µM [cytotoxic, partial curve]	
COc1ccc(/C(C)=N/NC(=O)c2ccc3nc[nH]c3c2)cc1	inconclusive: 7.31 µM [rising, single point]	
Cc1cc(C)nc(NS(=O)(=O)c2ccc(NC(=O)Nc3ccccc3)cc2)n1	inconclusive: 32.6 µM [rising, single point]	
OC(c1ccccc1)(C1CCCCC1)C(CN1CCOCC1)c1ccccc1 (configuration not stated)	inconclusive: 25.9 µM [cytotoxic, single point]	
O=C(CN1CCCCC1)NNc1nc(-c2ccccc2)c2cc(Cl)ccc2n1	inconclusive: 20.6 µM [cytotoxic, partial curve]	
COc1ccc([C@H]2N[C@]3(CCCN(Cc4ccc(F)cc4)C3=O)[C@H]3C(=O)N(Cc4ccccc4)C(=O)[C@@H]23)cc1	inactive	
OC(CN1CCN(c2cccc(Cl)c2)CC1)C(c1ccccc1)c1ccccc1 (configuration not stated)	inconclusive: 23.1 µM [cytotoxic, partial curve, poor fit]	
Cc1ccc(-n2nnnc2SCC(=O)c2cc(C)n(-c3cc(C)on3)c2C)c(C)c1	inconclusive: 29.1 µM [cytotoxic, single point]	
COc1ccc(-c2nnc(SCC(=O)c3ccc(C)o3)o2)cc1	active: 23.1 µM	
CCN(CC(=O)Nc1c(F)cccc1F)C(=O)c1ccc(C2SCCS2)cc1	inactive	
CCOc1ccc(C(CC(=O)O)NC(=O)C(CC)c2ccccc2)cc1 (configuration not stated)	inconclusive: 16.4 µM [rising, single point]	
COc1cc(C(O)P(=O)(OCCC(C)C)c2ccc(N(C)C)cc2)cc(OC)c1OC (configuration not stated)	inconclusive: 23.1 µM [cytotoxic, partial curve, poor fit]	
CC(C)(C)N1C(=O)c2ccccc2NC(=O)N1Cc1ccc(Br)cc1	inconclusive: 11.6 µM [cytotoxic, partial curve, poor fit]	
CCC(=O)Nc1ccc2c(c1)C(=O)N(C)C2=O	inconclusive: 29.1 µM [rising, single point]	
COc1ccc(C(=O)Nc2ccc(S(=O)(=O)N3CCOCC3)cc2)cc1[N+](=O)[O-]	inconclusive: 20.6 µM [rising, single point]	
COc1ccc(-c2cc(C)no2)cc1S(=O)(=O)NCC(C)c1ccccc1 (configuration not stated)	inactive	
O=C(NCCNc1ccccc1[N+](=O)[O-])c1cc(F)c(F)cc1Cl	inconclusive: 23.1 µM [cytotoxic, single point]	
Fc1cccc(Cc2c(-c3cccc(Cl)c3)nc3ccc(Cl)cn23)c1	inactive	
O=c1[nH][nH]c2cc(=O)n(-c3cccc(C(F)(F)F)c3)nc12	inconclusive: 23.1 µM [rising, partial curve, poor fit]	
CCOC(=O)N1CCN(C(=O)C[C@@H]2C[C@@]3(C(=O)OC)CCCCC=C3N(CCc3ccc(OC)c(OC)c3)C2=O)CC1	inconclusive: 2.59 µM [cytotoxic, full curve]	
Cc1ccc(-c2nc(COC(=O)c3c(C)noc3C)cs2)cc1	active: 23.1 µM	
COCOCCn1cc(CN2CCS(=O)(=O)N(Cc3ccc(-c4ccc(C)cc4)cc3)C(CC(C)C)C2=O)nn1 (configuration not stated)		inconclusive: -31.4% [cytotoxic]

SMILES	Potency	activity change, negative = cytotoxicity
Cc1cc(C(=O)NC2CC(C)(C)Cc3c2cnn3-c2cccc(F)c2)nn1C (configuration not stated)	inconclusive: 6.51 µM [cytotoxic, partial curve]	
Cc1ccc(N(C)C(=O)C2CCCN2S(=O)(=O)c2ccc3c(c2)n(C)c(=O)c(=O)n3C)cc1 (configuration not stated)	inconclusive: 20.6 µM [rising, single point]	
CCc1sc(C(=O)Nc2cccc(C(C)=O)c2)cc1C	active: 20.6 µM	
CCOC(=O)[C@]12CCC=C1N(Cc1ccco1)C(=O)[C@H](CC(=O)N1CCSCC1)C2	inactive	
Cc1cc(NC(=O)CSc2nccn2-c2cccc(F)c2)no1	active: 16.4 µM	
NNC(=O)c1ccc(COc2cccc3ccccc23)cc1	inactive	
CCc1ccc(C(=O)Nc2cccc(-c3nn[nH]n3)c2)s1	inactive	
CCCC(=O)Nc1ccc2c(c1)c1ccccc1n2CC	inconclusive: 9.2 µM [cytotoxic, partial curve]	
O=C(Nc1nnc(S(=O)(=O)N2CCCCC2)s1)c1ccc(F)cc1	inconclusive: 18.4 µM [rising, single point]	
CCOc1ccc(/C=N/NC(=O)C(=O)NCc2ccco2)cc1	inactive	
COc1ccc(C(=O)NCCNC(=O)c2cc(OCC(F)(F)F)ccc2OCC(F)(F)F)cc1	inactive	
NC(=O)c1oc2ccccc2c1NC(=O)c1ccccc1	inconclusive: 14.6 µM [cytotoxic, partial curve, poor fit]	
Cc1noc(Cn2c(=O)c3ccccc3n(CC(=O)Nc3ccc(F)cc3F)c2=O)n1	inactive	
Cc1nn(-c2ccccc2)c2c1C(c1ccc(Cl)cc1)N(c1ccccc1)C(=O)N2 (configuration not stated)	inconclusive: 3.66 µM [cytotoxic, full curve, poor fit]	
COc1ccc(C(=O)N2CCc3ccccc32)cc1	inconclusive: 23.1 µM [cytotoxic, single point]	
Cn1nnnc1Sc1ncnc2scc(-c3cccs3)c12	inconclusive: 29.1 µM [cytotoxic, single point]	
CC1=C(C(=O)Nc2ccccc2C)C(c2ccco2)n2ncnc2N1 (configuration not stated)	inactive	
O=c1cc(CSc2nnc(Nc3ccccc3)s2)nc2sccn12	inconclusive: 29.1 µM [cytotoxic, single point]	
COC/C=C/C1=CC2=CC(=O)C(C)(OC(=O)c3cnc4ccccc4n3)C(=O)C2=CN1Cc1ccc(OC)cc1 (configuration not stated)	inconclusive: 23.1 µM [rising, single point]	
O=C(Cn1c(NCCCO)nc2ccccc21)c1ccc(F)cc1	inconclusive: 0.0366 µM [cytotoxic, full curve, poor fit]	
OB(O)c1ccc(B(O)O)cc1	inactive	
COc1cc(C(=O)C(=O)N2CCN(c3ccccc3)CC2)cc(OC)c1OC	inconclusive: 16.4 µM [cytotoxic, partial curve]	
CCOC1CCCC(n2cnc3c(=S)nc[nH]c32)O1 (configuration not stated)	inconclusive: 16.4 µM [cytotoxic, single point]	
CC(C)CN(C(=O)COc1ccc(C(C)(C)C)cc1)C1CCS(=O)(=O)C1 (configuration not stated)	inconclusive: 23.1 µM [cytotoxic, single point]	
